Consider 28 molecules from patent US20250075147A1, “FRAGRANCE AND FLAVOR COMPOSITIONS COMPRISING NEW FLAVOR AND FRAGRANCE INGREDIENTS” (priority 2023, published 2025).

Data set [1] concerns odor evaluation panel. As to the kind of experiment: Odor evaluation panel rating of odorants by Rate-All-That-Apply (RATA) method with 55-word odor lexicon, plus intensity and pleasantness. Conditions: for Floral: mean panelist score for odor label floral (RATA); for Fruity: mean panelist score for odor label fruity (RATA); for Spicy: mean panelist score for odor label spicy (RATA); for Sweet: mean panelist score for odor label sweet (RATA); for Pleasantness: mean panelist score for odor pleasantness. Also on record: species or system human.

The nature of data set [2]: Evaluation by trained and/or certified flavor or fragrance chemists or master perfumers; categorization by commercial prospect. Conditions: for Rating (category of commercial prospect): evaluation by trained flavor or fragrance chemists or master perfumers; for Rating: category of commercial prospect, (A) highest > (B) > (C) > (D) lowest, (E) requires further study.

`COc1ccc(O)c(C=O)c1` [Compound 663, 2-hydroxy-5-methoxybenzaldehyde]: in data set [1], the Floral is 0.281, the Fruity was determined as 0.719, the Spicy came out at 0.625 and the Sweet came out at 1.938. Moreover, in data set [1], the Pleasantness came to 5.628. Also, the “Rating (category of commercial prospect)” value in data set [2] is “(C)”.

`CN1CCCC(CO)C1` (stereo not drawn) [Compound 316, (1-methylpiperidin-3-yl)methanol]: in data set [1], the Floral amounted to 0, the Fruity stood at 0, the Spicy was determined as 0 and the Sweet is 0.412. In data set [1], the Pleasantness was determined as 5.871. Further, the Rating result in data set [2] is “(A)”.

Regarding `NCCC1=CCCCC1` [Compound 382, 2-(cyclohexen-1-yl)ethanamine], in data set [1], the Floral is given as 0.594, the Fruity worked out at 0, the Spicy amounted to 0.219 and the Sweet is recorded as 0.469. The Pleasantness in data set [1] is recorded as 2.294. Moreover, the Rating entry in data set [2] is “(D)”.

Turning to `O=C(O)C=Cc1ccco1` [Compound 367, 3-(2-furyl)acrylic acid], in data set [1], the Floral is 0.062, the Fruity was 0.312, the Spicy worked out at 0.094 and the Sweet was 0.625. Besides, the Pleasantness in data set [1] worked out at 4.716. The Rating entry in data set [2] is reported as “(D)”.

For the molecule `Cc1cc2ccccc2n1C` [Compound 829, 1,2-dimethylindole], in data set [1], the Floral amounted to 0, the Fruity was determined as 0, the Spicy came out at 0.032 and the Sweet worked out at 0.032. The Pleasantness in data set [1] was determined as 2.903. The “Rating (category of commercial prospect)” value in data set [2] was “(C)”.

As to `CCOC(=O)CCN1CCCCC1` [Compound 848, ethyl 3-piperidin-1-ylpropanoate], in data set [1], the Floral is recorded as 0.056, the Fruity was 0, the Spicy is recorded as 0.167 and the Sweet worked out at 0. In addition, in data set [2], the “Rating (category of commercial prospect)” value is recorded as “(D)”.

Consider `Cc1ccc(CC#N)cc1` [Compound 290, 2-(4-methylphenyl)acetonitrile], for which, in data set [1], the Floral worked out at 0.688, the Fruity is recorded as 0.688, the Spicy is 0.781 and the Sweet is 1.344. Also, the Pleasantness in data set [1] worked out at 4.997. The Rating entry in data set [2] was “(E)”.

For `C=C(C)C(=O)OC1CC(C)(C)NC(C)(C)C1` [Compound 733, (2,2,6,6-tetramethylpiperidin-4-yl) 2-methylprop-2-enoate], in data set [1], the Floral is 0.143, the Fruity is 0.314, the Spicy was 0 and the Sweet was determined as 0.229. Also, the Pleasantness in data set [1] was found to be 3.766. Also, the “Rating (category of commercial prospect)” value in data set [2] was “(D)”.

`COc1cccc(CO)c1` [Compound 803, (3-methoxyphenyl)methanol]: in data set [1], the Floral is listed as 0.387, the Fruity turned out to be 0.032, the Spicy is given as 0.129 and the Sweet amounted to 0.387. For the same molecule, the Pleasantness in data set [1] is 5.097. Further, in data set [2], the “Rating (category of commercial prospect)” value was “(D)”.

In the case of `Nc1cccnn1` [Compound 534, pyridazin-3-amine], in data set [1], the Floral stood at 0.028, the Fruity is given as 0, the Spicy came to 0 and the Sweet was determined as 0.167. The Rating entry in data set [2] was “(D)”.

Regarding `CC(C)(C)OCCO` [Compound 544, 2-[(2-methylpropan-2-yl)oxy]ethanol], in data set [1], the Floral was determined as 0.056, the Fruity was 0.139, the Spicy was 0.056 and the Sweet is 0.5. Besides, the Rating result in data set [2] is recorded as “(A)”.

Take `N#Cc1cccs1` [Compound 876, thiophene-2-carbonitrile]: in data set [1], the Floral was 0.097, the Fruity came out at 1.097, the Spicy came to 2.065 and the Sweet was 1.903. In addition, the Pleasantness in data set [1] is 5.848. The “Rating (category of commercial prospect)” value in data set [2] is recorded as “(A)”.

On to `CCCCC(CC)(CO)CO` [Compound 812, 2-butyl-2-ethylpropane-1,3-diol], for which, in data set [1], the Floral was 0.2, the Fruity came out at 0.229, the Spicy was determined as 0.114 and the Sweet was 0.4. Further, in data set [1], the Pleasantness came to 4.766. Also, in data set [2], the “Rating (category of commercial prospect)” value was “(D)”.

Turning to `CCCCN(C=O)CCCC` [Compound 29, N,N-dibutyl formamide], in data set [1], the Floral stood at 0.469, the Fruity amounted to 0.75, the Spicy was determined as 0.031 and the Sweet is recorded as 1.375. In addition, the Pleasantness in data set [1] is 5.947. The Rating result in data set [2] is “(D)”.

Consider `COc1c(C)cnc(CO)c1C` [Compound 80, (4-methoxy-3,5-dimethylpyridin-2-yl)methanol], for which, in data set [1], the Floral is recorded as 0, the Fruity came to 0, the Spicy is listed as 0.167 and the Sweet was determined as 0.2. Moreover, in data set [1], the Pleasantness was found to be 4.967. Besides, the Rating entry in data set [2] is on record as “(D)”.

As to `CCOC(=O)CCNCc1ccccc1` [Compound 273, ethyl 3-(benzylamino)propanoate], in data set [1], the Floral came out at 0.028, the Fruity is reported as 0, the Spicy was 0.25 and the Sweet came to 0. Further, the Rating result in data set [2] is “(B)”.

As for `O=C(O)[C@@H]1CC=CCC1` [Compound 84, (1S)-cyclohex-3-ene-1-carboxylic acid], in data set [1], the Floral was found to be 0.353, the Fruity is listed as 2.294, the Spicy is given as 0.088 and the Sweet is listed as 1.206. Besides, the Pleasantness in data set [1] was determined as 4.997. Besides, the Rating result in data set [2] was “(D)”.

Take `COc1ccc(C)c([N+](=O)[O-])c1` [Compound 484, 4-methoxy-1-methyl-2-nitrobenzene]: in data set [1], the Floral is 0.5, the Fruity is 0, the Spicy was determined as 0.139 and the Sweet worked out at 0.333. The Rating entry in data set [2] is on record as “(B)”.

Regarding `CCCC(=O)C(C)CC` (stereo not drawn) [Compound 407, 3-methylheptan-4-one], in data set [1], the Floral was found to be 0.156, the Fruity amounted to 1.062, the Spicy came out at 0.031 and the Sweet came to 1.531. The Pleasantness in data set [1] came out at 5.85. In data set [2], the Rating result was “(A)”.

As to `N#CC1(c2ccccc2)CCCC1` [Compound 985, 1-phenylcyclopentane-1-carbonitrile], in data set [1], the Floral is on record as 1.056, the Fruity is reported as 0.5, the Spicy worked out at 0.194 and the Sweet came to 0.528. Besides, in data set [2], the “Rating (category of commercial prospect)” value is recorded as “(D)”.

In the case of `COC(=O)C1CCOCC1` [Compound 427, methyl oxane-4-carboxylate], in data set [1], the Floral came to 0.594, the Fruity is reported as 1.844, the Spicy turned out to be 0 and the Sweet was 1.906. The Pleasantness in data set [1] is 5.772. The Rating entry in data set [2] is “(B)”.

On to `c1ccc2nsnc2c1` [Compound 753, 2,1,3-benzothiadiazole], for which, in data set [1], the Floral came to 0.25, the Fruity amounted to 0.281, the Spicy is reported as 0.094 and the Sweet turned out to be 1.125. In addition, the Pleasantness in data set [1] is on record as 4.922. The “Rating (category of commercial prospect)” value in data set [2] is “(C)”.

For `CC1(C)[C@@H]2C[C@@H](O)[C@@](C)(O)[C@H]1C2` [Compound 144, (1S,2S,3R,5S)-2,6,6-trimethylbicyclo[3.1.1]heptane-2,3-diol], in data set [1], the Floral amounted to 0.1, the Fruity came out at 0.033, the Spicy came out at 0 and the Sweet is 0.233. In data set [1], the Pleasantness was 4.893. In data set [2], the Rating entry is recorded as “(D)”.

For `CCCC(C)(CO)CO` [Compound 761, 2-methyl-2-propylpropane-1,3-diol], in data set [1], the Floral is 0.25, the Fruity came to 0.469, the Spicy was 0.031 and the Sweet is given as 1. Moreover, in data set [1], the Pleasantness came to 5.156. The “Rating (category of commercial prospect)” value in data set [2] is “(D)”.

On to `N#Cc1ccncc1` [Compound 261, pyridine-4-carbonitrile], for which, in data set [1], the Floral is listed as 0.143, the Fruity worked out at 0.429, the Spicy amounted to 0.057 and the Sweet stood at 0.829. In data set [1], the Pleasantness turned out to be 5.774. In addition, the Rating entry in data set [2] is given as “(B)”.

On to `COC(=O)[C@H]1COC(C)(C)O1` [Compound 335, methyl (R)-(+)-2,2-Dimethyl-1,3-dioxolane-4-carboxylate], for which, in data set [1], the Floral was 0.562, the Fruity came out at 0.719, the Spicy was 0.125 and the Sweet was 1.406. The Pleasantness in data set [1] came out at 5.797. The Rating entry in data set [2] was “(D)”.

On to `CCCCCOc1ccc(C=O)cc1` [Compound 320, 4-pentoxybenzaldehyde], for which, in data set [1], the Floral came out at 0.469, the Fruity is given as 0.625, the Spicy stood at 0 and the Sweet came to 0.625. In addition, the Pleasantness in data set [1] is 4.025. Besides, in data set [2], the Rating result is on record as “(D)”.

Turning to `COC(=O)CCc1ccc(O)cc1` [Compound 968, methyl 3-(4-hydroxyphenyl)propanoate], in data set [1], the Floral is given as 0.781, the Fruity was 0.125, the Spicy is 0.438 and the Sweet is recorded as 0.906. Moreover, the Pleasantness in data set [1] was determined as 4.469. Also, the “Rating (category of commercial prospect)” value in data set [2] is reported as “(B)”.
